This assay is described as follows: qHTS Assay for Lipid Storage Modulators in Drosophila S3 Cells.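 As to cell number change: cells counted by Cell Tracker Red CMTPX staining in the red channel.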 The note with it: BODIPY lipid droplet fluorescence, 18-24 h; for cell number change: measured here: cell count max response, cells fed with added oleic acid. The method, boiled down:
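Drosophila S3 cells loaded with oleic acid (400 uM, as added) and compounds at several concentrations; lipid droplets imaged by 488-nm laser-scanning cytometry, 500–530 nm intensity and object ratio to cell channel. Percent activity normalized to 20 uM Triacsin C.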

[1] abbreviates: measured here: lipid fluorescence (Fed channel) AC50, cells fed with added oleic acid.
The mark [2] stands for this setting: measured here: cell number channel AC50, cells fed with added oleic acid.

This is one part of the list. The main result of the screen is listed elsewhere. These columns were measured beside it and carry no call. Compounds called inactive in the main read-out are mostly missing here. Potencies come from curve fits of mixed quality, noted in brackets.

For the compound `Cc1c(C(=O)O)nnn1-c1ccccc1`, the cell number change is 12.6%. Moreover, the AC50 under setting [1] was 3.66 µM [falling, full curve].
For `Nc1ccc(Nc2ccccc2)cc1`, the cell number change is -44.8%. Besides, under setting [2], the AC50 was 20.6 µM [falling, partial curve]. Besides, under setting [1], the AC50 is 20.6 µM [falling, single point].
Turning to `COc1ccc(CC(=O)Nc2nnc(CC(C)C)s2)cc1S(=O)(=O)N1CCOCC1`, the cell number change turned out to be 6.02%.
For the compound `O=C(COC(=O)c1ccc(Br)cc1)NC(=O)NCc1ccccc1`, the cell number change was -17.2%. Also, the concentration at half-maximal activity (AC50) under setting [1] is 14.6 µM [falling, single point].
For the compound `CC(C)(C#N)c1cc(Cn2cncn2)cc(C(C)(C)C#N)c1`, the cell number change is -3.09%. The AC50 under setting [1] is 4.11 µM [falling, single point].
Regarding `COc1ccc(C)cc1N(CC(=O)Nc1cccc(N(C)S(C)(=O)=O)c1)S(C)(=O)=O`, the cell number change is 23.4%. Moreover, the AC50 under setting [1] was 6.51 µM [falling, single point].
Take `CCc1ccc(OCC(=O)N/N=C\c2ccco2)c([N+](=O)[O-])c1`: the cell number change worked out at 32.2%. For the same compound, the concentration at half-maximal activity (AC50) under setting [2] was 5.17 µM [rising, partial curve]. Moreover, the AC50 under setting [1] is 10.3 µM [rising, partial curve].
Turning to `COc1ccc2cc(-c3cc(C(=O)OCC(=O)Nc4c(C)n(C)n(-c5ccccc5)c4=O)c4ccccc4n3)ccc2c1`, the cell number change is -15.9%. Under setting [1], the AC50 is 0.82 µM [falling, full curve, poor fit].
As for `O=c1[nH]c(SCc2cccc(Cl)c2)nc2ccccc12`, the cell number change is -3.95%. The AC50 under setting [2] was 6.51 µM [rising, single point]. Moreover, under setting [1], the AC50 is 4.61 µM [rising, single point].
With `Cc1ccc(Nc2nc(NCC3CCCO3)nc(N)c2[N+](=O)[O-])cc1C` (stereo not drawn), the cell number change was 1.77%. Besides, the AC50 under setting [1] is 4.11 µM [rising, single point].
With `COc1cc(NC(=O)c2cccs2)ccc1NC(=O)Cc1ccccc1`, the cell number change was -23.8%.
For `COc1ccccc1C(=O)Oc1ccc2c(c1)O/C(=C\c1ccncc1)C2=O`, the cell number change came to 1.66%. Further, the AC50 under setting [1] is 29.1 µM [falling, single point].
As for `Cc1oc(-c2ccccc2F)nc1CS(=O)(=O)CC(=O)NCc1ccco1`, the cell number change came out at 11.2%.
As to `COc1ccc(NC(=O)c2nnn(CC(=O)Nc3ccc4c(c3)OCO4)c2N)c(OC)c1`, the cell number change is -3.95%. Under setting [2], the AC50 was 0.259 µM [rising, partial curve, poor fit]. Under setting [1], the AC50 is 0.92 µM [rising, full curve].
For `NS(=O)(=O)c1ccc(N2CCOCC2)c(C(=O)NCc2ccc3c(c2)OCO3)c1`, the cell number change worked out at 99.5%. The AC50 under setting [2] was 11.6 µM [rising, partial curve].
As for `COc1ccccc1Nc1cc(C(=O)N2CCc3ccccc3C2)c2ccccc2n1`, the cell number change came to 50.9%. For the same compound, under setting [2], the AC50 was 29.1 µM [rising, single point]. Moreover, the AC50 under setting [1] was 29.1 µM [rising, single point].
For `Cc1nc2ccc(NC(=O)N3CCOCC3)cc2s1`, the cell number change stood at 48.7%. Besides, the AC50 under setting [2] is 7.31 µM [rising, partial curve]. Besides, under setting [1], the concentration at half-maximal activity (AC50) was 18.4 µM [rising, partial curve].
On to `CCCNS(=O)(=O)c1ccc(CCC(=O)N2CCN(CC)CC2)cc1`, for which the cell number change was -102%. The half-maximal activity concentration (AC50) under setting [2] is 32.6 µM [falling, partial curve]. For the same compound, the AC50 under setting [1] was 0.651 µM [falling, full curve].
`COc1ccc(CNC(=O)C(CCSC)NC(=O)c2ccco2)cc1` (stereo not drawn): the cell number change came out at 85.1%. In addition, the concentration at half-maximal activity (AC50) under setting [2] was 23.1 µM [rising, partial curve].
As to `CCCCCSc1nnc(N)s1`, the cell number change stood at 2.94%. Further, the half-maximal activity concentration (AC50) under setting [1] is 0.461 µM [falling, single point].
On to `Cc1ccc(S(=O)(=O)NN2C(=O)/C(=C\c3ccc(Cl)cc3)SC2=S)cc1`, for which the cell number change is -11.5%. The AC50 under setting [2] was 0.82 µM [rising, partial curve].
`Cc1cc(C)cc(-n2cc(C(=O)O)c(=O)cc2C)c1`: the cell number change was found to be 0.678%. Besides, under setting [1], the AC50 was 2.31 µM [rising, partial curve].
As to `O=C(c1ccc(S(=O)(=O)NCc2ccco2)cc1)N1CCN(Cc2ccc3c(c2)OCO3)CC1`, the cell number change worked out at 55.8%.
As to `O=C(NC1CCN(C(=O)NCc2ccccc2)CC1)c1ccccc1`, the cell number change came out at 19%. The AC50 under setting [1] is 29.1 µM [rising, single point].
As for `COc1ccc(C(=O)NNC2=NCCCCC2)cc1`, the cell number change is -3.82%.
Same read-out and setting: as for `COc1ccc(/C=N/NC(=O)C2CC2)c(OC)c1OC`, the figure is 4.95%.
For the compound `Cc1cc(NC(=S)Nc2cccc3ccccc23)n[nH]1`, the cell number change amounted to 7.91%. In addition, the AC50 under setting [1] is 4.61 µM [rising, partial curve, poor fit].
As for `COc1cc(OC)cc(C(=O)NC2CCCCCCC2)c1`, the cell number change turned out to be 10.6%. In addition, the AC50 under setting [2] was 0.206 µM [falling, full curve, poor fit].
For `CC(=O)NC(CCS(C)(=O)=O)C(=O)Nc1cccc(C)c1` (stereo not drawn), the cell number change was found to be 8.32%. Under setting [1], the AC50 is 29.1 µM [falling, single point].
For `Cc1ccccc1NC(=S)NC1(C)CCS(=O)(=O)C1` (stereo not drawn), the cell number change is 19.2%.
Consider `Cc1ccc(CN2CC(C(=O)Nc3ccncc3)CC2=O)cc1` (stereo not drawn), for which the cell number change was 7.62%. Further, the AC50 under setting [1] was 0.00651 µM [rising, full curve, poor fit].
Turning to `CCC(O)c1c(-c2ccccc2)nn(C)c1Cl` (stereo not drawn), the cell number change is -7.06%. Besides, the AC50 under setting [2] was 0.13 µM [falling, full curve, poor fit]. In addition, the AC50 under setting [1] was 6.51 µM [rising, single point].
As for `CCN(CC(=O)Nc1ccc2c(c1)OCCO2)C(=O)CCc1ccc(OC)cc1`, the cell number change turned out to be 43.5%. Under setting [2], the AC50 was 29.1 µM [rising, single point].
Take `Cc1[nH]c2ccccc2c1/C=N/Nc1nncn1N`: the cell number change was -51.1%. Moreover, the AC50 under setting [2] is 29.1 µM [falling, single point]. Besides, the half-maximal activity concentration (AC50) under setting [1] is 29.1 µM [falling, single point].
For the compound `COc1ccc(C(CNC(=O)C(CCSC)NC(=O)c2ccccc2OC)N2CCCCC2)cc1` (stereo not drawn), the cell number change stood at 46.5%. The AC50 under setting [2] is 29.1 µM [rising, single point]. Further, the AC50 under setting [1] was 20.6 µM [rising, partial curve].
Take `COc1ccc(CCNC(=O)[C@@H](NC(N)=O)C(C)C)cc1`: the cell number change is -17.3%. Also, under setting [1], the concentration at half-maximal activity (AC50) is 13 µM [falling, partial curve, poor fit].
Consider `CNC(=O)C(=O)NCC1OCCN1S(=O)(=O)c1ccc2c(c1)OCCO2` (stereo not drawn), for which the cell number change is 14.9%. In addition, the AC50 under setting [1] is 6.51 µM [rising, full curve, poor fit].
Take `O=C(Nc1ccccc1-c1ccccc1)NC1CCN(CC(=O)N2CCOCC2)CC1`: under setting [2], the half-maximal activity concentration (AC50) was 5.8 µM [falling, single point].

These data come from PubChem BioAssay AID2685 (National Center for Advancing Translational Sciences (NCATS), 2010).
